# Assay results as given in patent publication US20090131531A1 (priority 2005, published 2009).
# Some entries share one result that the patent states for a list of compounds.
# Key:
# Phytophthora infestans [1] = type: in vivo; conditions: tomato seedling (variety: Patio), 500 ppm, sprayed on leaves and stems, inoculated after air-drying, 1 day at 23° C. then 4 days in greenhouse, visual
# Phytophthora infestans [2] = type: in vivo; conditions: tomato seedling (variety: Patio), 200 ppm, sprayed on leaves and stems, inoculated after air-drying, 1 day at 23° C. then 4 days in greenhouse, visual
smiles,measurement,setting,value
"C#CCOc1ccc(C(=O)NC2CCCC2)cc1OC [Compound 15, N-cyclopentyl-4-(2-propynyloxy)-3-methoxybenzamide]",lesion areas in the seedlings treated as compared with the lesion areas in seedlings without the treatment,Phytophthora infestans [1],≤ 30%
same,lesion areas in the seedlings treated as compared with the lesion areas in seedlings without treatment,Phytophthora infestans [2],≤ 30%
"C#CCOc1c(F)cc(C(=O)NC2CCCCC2(C)C)cc1F (centres unmarked) [Compound 59, N-(2,2-dimethylcyclohexyl)-3,5-difluoro-4-(2-propynyloxy)benzamide]",lesion areas in the seedlings treated as compared with the lesion areas in seedlings without the treatment,Phytophthora infestans [1],≤ 30%
same,lesion areas in the seedlings treated as compared with the lesion areas in seedlings without treatment,Phytophthora infestans [2],≤ 30%
"C#CCOc1ccc(C(=O)N[C@@H](C)C2CCCCC2)cc1F [Compound 37, N-((1S)-1-cyclohexylethyl)-3-fluoro-4-(2-propynyloxy)benzamide]",lesion areas in the seedlings treated as compared with the lesion areas in seedlings without the treatment,Phytophthora infestans [1],≤ 30%
same,lesion areas in the seedlings treated as compared with the lesion areas in seedlings without treatment,Phytophthora infestans [2],≤ 30%
"C#CCOc1ccc(C(=O)NC2CCCC(C)C2C)cc1OC (centres unmarked) [Compound 29, N-(2,3-dimethylcyclohexyl)-4-(2-propynyloxy)-3-methoxybenzamide]",lesion areas in the seedlings treated as compared with the lesion areas in seedlings without the treatment,Phytophthora infestans [1],≤ 30%
same,lesion areas in the seedlings treated as compared with the lesion areas in seedlings without treatment,Phytophthora infestans [2],≤ 30%
"C#CCOc1c(OC)cc(C(=O)NC2CCCCC2Cl)cc1OC (centres unmarked) [Compound 109, N-(2-chlorocyclohexyl)-3,5-dimethoxy-4-(2-propynyloxy)benzamide]",lesion areas in the seedlings treated as compared with the lesion areas in seedlings without treatment,Phytophthora infestans [2],≤ 30%
"C#CCOc1c(OC)cc(C(=S)NCC2CCCCC2)cc1OC [Compound 33, N-cyclohexylmethyl-4-(2-propynyloxy)-3,5-dimethoxybenzenethioamide]",lesion areas in the seedlings treated as compared with the lesion areas in seedlings without the treatment,Phytophthora infestans [1],≤ 30%
same,lesion areas in the seedlings treated as compared with the lesion areas in seedlings without treatment,Phytophthora infestans [2],≤ 30%
"C#CCOc1c(F)cc(C(=O)NCC2(C)CCCCC2)cc1F [Compound 74, N-(1-methylcyclohexyl)methyl-3,5-difluoro-4-(2-propynyloxy)benzamide]",lesion areas in the seedlings treated as compared with the lesion areas in seedlings without the treatment,Phytophthora infestans [1],≤ 30%
same,lesion areas in the seedlings treated as compared with the lesion areas in seedlings without treatment,Phytophthora infestans [2],≤ 30%
"C#CCOc1ccc(C(=O)NCC2(C)CCCCC2)cc1F [Compound 38, N-(1-methylcyclohexyl)methyl-3-fluoro-4-(2-propynyloxy)benzamide]",lesion areas in the seedlings treated as compared with the lesion areas in seedlings without the treatment,Phytophthora infestans [1],≤ 30%
same,lesion areas in the seedlings treated as compared with the lesion areas in seedlings without treatment,Phytophthora infestans [2],≤ 30%
"C#CCOc1c(F)cc(C(=O)NC2CCCCC2)cc1F [Compound 44, N-cyclohexyl-3,5-difluoro-4-(2-propynyloxy)benzamide]",lesion areas in the seedlings treated as compared with the lesion areas in seedlings without the treatment,Phytophthora infestans [1],≤ 30%
same,lesion areas in the seedlings treated as compared with the lesion areas in seedlings without treatment,Phytophthora infestans [2],≤ 30%
"C#CCOc1c(F)cc(C(=O)NCC2CCC2)cc1F [Compound 66, N-cyclobutylmethyl-3,5-difluoro-4-(2-propynyloxy)benzamide]",lesion areas in the seedlings treated as compared with the lesion areas in seedlings without the treatment,Phytophthora infestans [1],≤ 30%
same,lesion areas in the seedlings treated as compared with the lesion areas in seedlings without treatment,Phytophthora infestans [2],≤ 30%
"C#CCOc1ccc(C(=O)NCC2CCC2)cc1OC [Compound 13, N-cyclobutylmethyl-4-(2-propynyloxy)-3-methoxybenzamide]",lesion areas in the seedlings treated as compared with the lesion areas in seedlings without the treatment,Phytophthora infestans [1],≤ 30%
same,lesion areas in the seedlings treated as compared with the lesion areas in seedlings without treatment,Phytophthora infestans [2],≤ 30%
"C#CCOc1ccc(C(=O)NCC2(C)CCCCC2)cc1OC [Compound 14, N-(1-methylcyclohexyl)methyl-4-(2-propynyloxy)-3-methoxybenzamide]",lesion areas in the seedlings treated as compared with the lesion areas in seedlings without treatment,Phytophthora infestans [2],≤ 30%
"C#CCOc1ccc(C(=O)NC2CCCC(C)C2)cc1OC (centres unmarked) [Compound 3, N-(3-methylcyclohexyl)-4-(2-propynyloxy)-3-methoxybenzamide]",lesion areas in the seedlings treated as compared with the lesion areas in seedlings without the treatment,Phytophthora infestans [1],≤ 30%
"C#CCOc1ccc(C(=O)NC2CCCCC2)cc1OC [Compound 5, N-(cyclohexyl)-4-(2-propynyloxy)-3-methoxybenzamide]",lesion areas in the seedlings treated as compared with the lesion areas in seedlings without the treatment,Phytophthora infestans [1],≤ 30%
same,lesion areas in the seedlings treated as compared with the lesion areas in seedlings without treatment,Phytophthora infestans [2],≤ 30%
"C#CCOc1c(OC)cc(C(=O)NCC2(C)CCCCC2)cc1OC [Compound 31, N-(1-methylcyclohexyl)methyl-4-(2-propynyloxy)-3,5-dimethoxybenzamide]",lesion areas in the seedlings treated as compared with the lesion areas in seedlings without the treatment,Phytophthora infestans [1],≤ 30%
same,lesion areas in the seedlings treated as compared with the lesion areas in seedlings without treatment,Phytophthora infestans [2],≤ 30%
"C#CCOc1ccc(C(=O)NCC2CC2)cc1OC [Compound 10, N-cyclopropylmethyl-4-(2-propynyloxy)-3-methoxybenzamide]",lesion areas in the seedlings treated as compared with the lesion areas in seedlings without the treatment,Phytophthora infestans [1],≤ 30%
"C#CCOc1c(F)cc(C(=O)NC2(C#N)CCCCC2)cc1F [Compound 76, N-(1-cyanocyclohexyl)-3,5-difluoro-4-(2-propynyloxy)benzamide]",lesion areas in the seedlings treated as compared with the lesion areas in seedlings without the treatment,Phytophthora infestans [1],≤ 30%
"C#CCOc1c(F)cc(C(=O)NC2CCCCC2C#N)cc1F (centres unmarked) [Compound 80, N-(2-cyanocyclohexyl)-3,5-difluoro-4-(2-propynyloxy)benzamide]",lesion areas in the seedlings treated as compared with the lesion areas in seedlings without the treatment,Phytophthora infestans [1],≤ 30%
"C#CCOc1ccc(C(=O)NCC2CCCC2)cc1OC [Compound 11, N-cyclopentylmethyl-4-(2-propynyloxy)-3-methoxybenzamide]",lesion areas in the seedlings treated as compared with the lesion areas in seedlings without the treatment,Phytophthora infestans [1],≤ 30%
same,lesion areas in the seedlings treated as compared with the lesion areas in seedlings without treatment,Phytophthora infestans [2],≤ 30%
"C#CCOc1ccc(C(=O)NC2CCCC2)cc1F [Compound 35, N-cyclopentyl-3-fluoro-4-(2-propynyloxy)benzamide]",lesion areas in the seedlings treated as compared with the lesion areas in seedlings without treatment,Phytophthora infestans [2],≤ 30%
"C#CCOc1ccc(C(=O)NC2CCCCC2Cl)cc1F (centres unmarked) [Compound 110, N-(2-chlorocyclohexyl)-3-fluoro-4-(2-propynyloxy)benzamide]",lesion areas in the seedlings treated as compared with the lesion areas in seedlings without the treatment,Phytophthora infestans [1],≤ 30%
same,lesion areas in the seedlings treated as compared with the lesion areas in seedlings without treatment,Phytophthora infestans [2],≤ 30%
"C#CCOc1c(F)cc(C(=O)NCC2CC2)cc1F [Compound 65, N-cyclopropylmethyl-3,5-difluoro-4-(2-propynyloxy)benzamide]",lesion areas in the seedlings treated as compared with the lesion areas in seedlings without the treatment,Phytophthora infestans [1],≤ 30%
"C#CCOc1c(F)cc(C(=O)NC2CCCC2)cc1F [Compound 49, N-cyclopentyl-3,5-difluoro-4-(2-propynyloxy)benzamide]",lesion areas in the seedlings treated as compared with the lesion areas in seedlings without the treatment,Phytophthora infestans [1],≤ 30%
same,lesion areas in the seedlings treated as compared with the lesion areas in seedlings without treatment,Phytophthora infestans [2],≤ 30%
"C#CCOc1c(OC)cc(C(=O)NC2CCCCC2C)cc1OC (centres unmarked) [Compound 19, N-(2-methylcyclohexyl)-3,5-dimethoxy-4-(2-propynyloxy)benzamide]",lesion areas in the seedlings treated as compared with the lesion areas in seedlings without the treatment,Phytophthora infestans [1],≤ 30%
same,lesion areas in the seedlings treated as compared with the lesion areas in seedlings without treatment,Phytophthora infestans [2],≤ 30%
"C#CCOc1c(F)cc(C(=O)NCC2CCCCC2)cc1F [Compound 32, N-cyclohexylmethyl-4-(2-propynyloxy)-3,5-difluorobenzamide]",lesion areas in the seedlings treated as compared with the lesion areas in seedlings without the treatment,Phytophthora infestans [1],≤ 30%
same,lesion areas in the seedlings treated as compared with the lesion areas in seedlings without treatment,Phytophthora infestans [2],≤ 30%
"C#CCOc1ccc(C(=O)NC2CCCCC2C)cc1OC (stereo not drawn) [Compound 25, cis-N-(2-methylcyclohexyl)-4-(2-propynyloxy)-3-methoxybenzamide]",lesion areas in the seedlings treated as compared with the lesion areas in seedlings without the treatment,Phytophthora infestans [1],≤ 30%
same,lesion areas in the seedlings treated as compared with the lesion areas in seedlings without treatment,Phytophthora infestans [2],≤ 30%
